Taken from: PubChem BioAssay AID1259258 (Sanger Institute, 2017)

- Aim: 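Single siRNAs acting synergistically with drugs against colorectal cancer cells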 (follow-up of hits)
- Cell system: human SW48 colorectal cancer cells
- Knock-down reagent: single siRNA against human genes
- Conditions: anchor drug cetuximab 5 µg/ml, trametinib 10 nM or BYL719 1 µM, or DMSO vehicle alone; assay length not stated
- Measured: 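Cell viability after siRNA plus DMSO, cetuximab 5 µg/ml, trametinib 10 nM or BYL719 1 µM, scaled to non-targeting pool 2 and replicate-averaged; synergy score weighs combined against single effects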
- Reading the numbers: synergy score with trametinib and synergy score with BYL719 and synergy score with cetuximab: higher = stronger synergy, more killing than expected
- Call rule: 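Hit when the synergy score is above 0.10 for at least one of trametinib, BYL719 or cetuximab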
Shown is an unselected part of 160 reagents. 40 of all reagents (25%) count as active. 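Each row is one of four siRNAs per gene; a gene counts as confirmed only when several of its siRNAs show synergy.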 Reagents against one gene are numbered here. Further read-outs or replicates are left out here. Not given: the amount of reagent, the time to read-out.

With knock-down of SYK #1, the record shows synergy score with trametinib -0.0176; synergy score with BYL719 = -0.02; synergy score with cetuximab -0.0421; inactive.
After knock-down of SYK #2, the record shows synergy score with trametinib 0.117; synergy score with BYL719 = -0.0649; synergy score with cetuximab 0.00689; active.
Silencing of SYK #3 resulted in: synergy score with trametinib 0.176; synergy score with BYL719 = 0.0725; synergy score with cetuximab 0.0275; active.
SYK #4 scored synergy score with trametinib -0.104; synergy score with BYL719 = -0.231; synergy score with cetuximab -0.274; inactive.
EPHA6 #1 scored synergy score with trametinib 0.0776; synergy score with BYL719 = -0.0416; synergy score with cetuximab -0.0259; inactive.
For EPHA6 #2, the values are synergy score with trametinib 0.101; synergy score with BYL719 = -0.00179; synergy score with cetuximab -0.0499; active.
EPHA6 #3 gave synergy score with trametinib 0.17; synergy score with BYL719 = -0.0101; synergy score with cetuximab 0.125; active.
Against EPHA6 #4 the deposit lists synergy score with trametinib -0.159; synergy score with BYL719 = 0.0571; synergy score with cetuximab -0.000673; inactive.
Against PFKFB3 #1 the deposit lists synergy score with trametinib 0.0294; synergy score with BYL719 = -0.053; synergy score with cetuximab -0.0857; inactive.
For PFKFB3 #2, the entry reads synergy score with trametinib -0.00421; synergy score with BYL719 = 0.0172; synergy score with cetuximab 0.0239; inactive.
For PFKFB3 #3 the deposit lists synergy score with trametinib -0.173; synergy score with BYL719 = -0.0465; synergy score with cetuximab -0.0207; inactive.
Knock-down of PFKFB3 #4 gave: synergy score with trametinib 0.00604; synergy score with BYL719 = 0.0945; synergy score with cetuximab 0.0776; inactive.

Records listed so far whose gene name begins with P or p:
PFKFB3 #1 — synergy score with trametinib = 0.0294; synergy score with BYL719 = -0.053; synergy score with cetuximab = -0.0857; activity call = inactive
PFKFB3 #2 — synergy score with trametinib = -0.00421; synergy score with BYL719 = 0.0172; synergy score with cetuximab = 0.0239; activity call = inactive
PFKFB3 #3 — synergy score with trametinib = -0.173; synergy score with BYL719 = -0.0465; synergy score with cetuximab = -0.0207; activity call = inactive
PFKFB3 #4 — synergy score with trametinib = 0.00604; synergy score with BYL719 = 0.0945; synergy score with cetuximab = 0.0776; activity call = inactive

More entries:
Depletion of CAMK2N1 #1 came out at: synergy score with trametinib 0.0302; synergy score with BYL719 = -0.171; synergy score with cetuximab -0.173; inactive.
For CAMK2N1 #2 the deposit lists synergy score with trametinib -0.173; synergy score with BYL719 = 0.37; synergy score with cetuximab -0.222; active.
Against CAMK2N1 #3 the deposit lists synergy score with trametinib -0.225; synergy score with BYL719 = -0.132; synergy score with cetuximab -0.0876; inactive.
CAMK2N1 #4 scored synergy score with trametinib -0.118; synergy score with BYL719 = -0.254; synergy score with cetuximab -0.265; inactive.
Knock-down of STK36 #1 gave: synergy score with trametinib 0.00895; synergy score with BYL719 = -0.0473; synergy score with cetuximab -0.0668; inactive.
For STK36 #2, the values are synergy score with trametinib -0.244; synergy score with BYL719 = -0.2; synergy score with cetuximab -0.227; inactive.
After knock-down of STK36 #3, the record shows synergy score with trametinib 0.114; synergy score with BYL719 = -0.0982; synergy score with cetuximab -0.22; active.
Against STK36 #4, the entry reads synergy score with trametinib -0.168; synergy score with BYL719 = -0.194; synergy score with cetuximab -0.192; inactive.
Silencing of CHD4 #1 resulted in: synergy score with trametinib 0.0425; synergy score with BYL719 = -0.111; synergy score with cetuximab 0.0191; inactive.
After knock-down of CHD4 #2, the record shows synergy score with trametinib 0.0989; synergy score with BYL719 = -0.00152; synergy score with cetuximab 0.136; active.
After knock-down of CHD4 #3 the results were synergy score with trametinib 0.082; synergy score with BYL719 = -0.0992; synergy score with cetuximab -0.00478; inactive.
CHD4 #4 scored synergy score with trametinib 0.109; synergy score with BYL719 = -0.0609; synergy score with cetuximab -0.00786; active.
